The supplement of paper PMC10849652
This is one part of the list.

Chains of the proteins cited; added tags and fusions are not shown. Lines headed by an entry give the natural chain unless they say otherwise; changes in a name come on top.
UniProt Q15293: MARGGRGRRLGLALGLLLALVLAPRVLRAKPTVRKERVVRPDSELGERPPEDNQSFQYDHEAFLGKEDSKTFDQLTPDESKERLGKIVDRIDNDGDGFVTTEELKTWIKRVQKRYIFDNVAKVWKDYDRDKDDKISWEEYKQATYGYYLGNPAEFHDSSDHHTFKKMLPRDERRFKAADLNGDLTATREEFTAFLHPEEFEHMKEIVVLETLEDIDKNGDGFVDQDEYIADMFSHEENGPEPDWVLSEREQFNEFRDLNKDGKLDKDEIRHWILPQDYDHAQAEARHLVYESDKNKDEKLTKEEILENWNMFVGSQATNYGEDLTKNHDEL
UniProt Q9Y256: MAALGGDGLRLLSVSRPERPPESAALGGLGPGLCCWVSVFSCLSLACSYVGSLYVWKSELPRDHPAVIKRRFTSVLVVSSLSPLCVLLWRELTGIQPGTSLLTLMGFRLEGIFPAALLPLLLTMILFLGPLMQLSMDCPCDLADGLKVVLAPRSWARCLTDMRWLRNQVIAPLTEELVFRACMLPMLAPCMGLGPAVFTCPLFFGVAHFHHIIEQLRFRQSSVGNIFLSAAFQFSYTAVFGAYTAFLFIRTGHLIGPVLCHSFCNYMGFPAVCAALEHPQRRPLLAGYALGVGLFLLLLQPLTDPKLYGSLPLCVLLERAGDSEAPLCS
UniProt Q8TEU7: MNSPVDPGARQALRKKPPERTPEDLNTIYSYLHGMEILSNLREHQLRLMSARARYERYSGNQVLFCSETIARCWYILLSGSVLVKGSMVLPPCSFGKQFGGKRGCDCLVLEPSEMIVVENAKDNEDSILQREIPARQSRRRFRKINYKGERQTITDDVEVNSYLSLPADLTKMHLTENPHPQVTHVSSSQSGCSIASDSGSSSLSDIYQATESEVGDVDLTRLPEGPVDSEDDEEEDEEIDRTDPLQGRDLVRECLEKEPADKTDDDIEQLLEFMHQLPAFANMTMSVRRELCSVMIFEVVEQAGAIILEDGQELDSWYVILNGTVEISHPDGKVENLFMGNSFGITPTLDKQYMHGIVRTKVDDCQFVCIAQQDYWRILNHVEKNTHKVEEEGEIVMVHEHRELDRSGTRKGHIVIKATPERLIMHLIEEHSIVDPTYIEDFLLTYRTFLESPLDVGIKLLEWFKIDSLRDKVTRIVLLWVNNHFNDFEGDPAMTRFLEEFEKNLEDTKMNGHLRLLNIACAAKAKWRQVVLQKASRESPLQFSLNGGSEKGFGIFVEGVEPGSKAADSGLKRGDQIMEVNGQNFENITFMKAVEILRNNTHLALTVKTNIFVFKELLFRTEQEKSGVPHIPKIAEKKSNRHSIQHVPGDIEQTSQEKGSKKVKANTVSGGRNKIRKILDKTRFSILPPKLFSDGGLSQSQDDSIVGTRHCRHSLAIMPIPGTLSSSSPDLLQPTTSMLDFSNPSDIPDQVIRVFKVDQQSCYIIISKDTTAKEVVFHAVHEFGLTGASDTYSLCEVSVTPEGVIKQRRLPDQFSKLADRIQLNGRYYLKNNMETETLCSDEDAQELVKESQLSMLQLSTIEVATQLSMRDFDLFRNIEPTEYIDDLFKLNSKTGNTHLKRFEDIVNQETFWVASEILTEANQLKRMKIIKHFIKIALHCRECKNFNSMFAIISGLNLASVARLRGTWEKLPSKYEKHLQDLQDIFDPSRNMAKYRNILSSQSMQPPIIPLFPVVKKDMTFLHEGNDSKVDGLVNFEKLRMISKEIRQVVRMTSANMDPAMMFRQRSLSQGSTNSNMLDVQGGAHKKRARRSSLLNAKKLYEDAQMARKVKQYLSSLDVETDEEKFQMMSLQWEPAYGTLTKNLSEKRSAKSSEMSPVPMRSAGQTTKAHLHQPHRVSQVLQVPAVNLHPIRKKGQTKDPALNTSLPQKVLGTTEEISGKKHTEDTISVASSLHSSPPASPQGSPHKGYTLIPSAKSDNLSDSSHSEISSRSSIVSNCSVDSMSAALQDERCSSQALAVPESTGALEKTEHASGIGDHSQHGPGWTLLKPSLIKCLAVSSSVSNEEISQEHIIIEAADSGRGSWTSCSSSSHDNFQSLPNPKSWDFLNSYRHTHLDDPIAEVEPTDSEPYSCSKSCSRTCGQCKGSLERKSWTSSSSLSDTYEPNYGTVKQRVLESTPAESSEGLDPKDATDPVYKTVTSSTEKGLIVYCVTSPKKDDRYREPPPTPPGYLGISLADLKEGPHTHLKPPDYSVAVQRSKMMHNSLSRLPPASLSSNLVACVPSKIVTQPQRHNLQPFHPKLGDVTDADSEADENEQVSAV
UniProt Q5T8P6: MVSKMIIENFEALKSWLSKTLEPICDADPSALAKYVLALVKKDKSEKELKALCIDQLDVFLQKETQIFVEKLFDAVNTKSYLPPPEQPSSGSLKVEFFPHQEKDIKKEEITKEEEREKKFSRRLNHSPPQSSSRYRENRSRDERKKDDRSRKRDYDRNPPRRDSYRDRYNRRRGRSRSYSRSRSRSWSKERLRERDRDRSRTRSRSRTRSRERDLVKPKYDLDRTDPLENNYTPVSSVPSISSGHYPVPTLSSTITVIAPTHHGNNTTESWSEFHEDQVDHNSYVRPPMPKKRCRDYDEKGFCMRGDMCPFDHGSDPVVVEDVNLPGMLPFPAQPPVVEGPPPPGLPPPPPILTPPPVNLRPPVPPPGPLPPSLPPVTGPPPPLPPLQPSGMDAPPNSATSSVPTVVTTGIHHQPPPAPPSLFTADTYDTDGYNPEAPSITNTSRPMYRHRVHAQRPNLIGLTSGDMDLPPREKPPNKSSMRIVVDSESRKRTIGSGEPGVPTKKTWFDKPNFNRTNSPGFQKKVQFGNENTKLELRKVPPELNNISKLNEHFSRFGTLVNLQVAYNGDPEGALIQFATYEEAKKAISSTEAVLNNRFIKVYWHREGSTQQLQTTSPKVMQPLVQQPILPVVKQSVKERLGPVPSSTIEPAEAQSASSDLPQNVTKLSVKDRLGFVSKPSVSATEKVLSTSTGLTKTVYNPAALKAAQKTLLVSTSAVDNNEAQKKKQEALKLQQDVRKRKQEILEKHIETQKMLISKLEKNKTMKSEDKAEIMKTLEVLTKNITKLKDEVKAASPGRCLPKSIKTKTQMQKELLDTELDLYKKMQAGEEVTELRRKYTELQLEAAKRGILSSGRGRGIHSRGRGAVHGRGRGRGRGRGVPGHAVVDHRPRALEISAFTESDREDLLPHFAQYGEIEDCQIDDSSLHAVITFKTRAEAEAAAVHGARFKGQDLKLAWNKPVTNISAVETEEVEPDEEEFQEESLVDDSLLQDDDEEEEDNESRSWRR
UniProt Q96PM5: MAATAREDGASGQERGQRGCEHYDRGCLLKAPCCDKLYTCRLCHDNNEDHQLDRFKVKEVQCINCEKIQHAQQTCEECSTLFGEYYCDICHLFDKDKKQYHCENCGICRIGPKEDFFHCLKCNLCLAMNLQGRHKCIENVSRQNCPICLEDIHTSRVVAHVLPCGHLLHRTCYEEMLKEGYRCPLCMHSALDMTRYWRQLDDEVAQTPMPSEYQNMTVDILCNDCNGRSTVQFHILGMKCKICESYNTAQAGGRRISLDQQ
UniProt Q9Y2P8: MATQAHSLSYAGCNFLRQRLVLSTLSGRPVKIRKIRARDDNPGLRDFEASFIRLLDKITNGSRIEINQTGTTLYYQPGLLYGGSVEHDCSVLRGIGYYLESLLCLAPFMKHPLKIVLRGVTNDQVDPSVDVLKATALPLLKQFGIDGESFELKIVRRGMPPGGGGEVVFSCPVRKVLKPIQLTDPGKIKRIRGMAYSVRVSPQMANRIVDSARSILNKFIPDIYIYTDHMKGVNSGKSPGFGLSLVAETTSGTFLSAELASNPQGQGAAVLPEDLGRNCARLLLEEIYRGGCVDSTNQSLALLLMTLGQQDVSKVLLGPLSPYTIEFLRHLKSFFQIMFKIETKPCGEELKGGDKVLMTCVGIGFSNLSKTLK
UniProt Q9P260: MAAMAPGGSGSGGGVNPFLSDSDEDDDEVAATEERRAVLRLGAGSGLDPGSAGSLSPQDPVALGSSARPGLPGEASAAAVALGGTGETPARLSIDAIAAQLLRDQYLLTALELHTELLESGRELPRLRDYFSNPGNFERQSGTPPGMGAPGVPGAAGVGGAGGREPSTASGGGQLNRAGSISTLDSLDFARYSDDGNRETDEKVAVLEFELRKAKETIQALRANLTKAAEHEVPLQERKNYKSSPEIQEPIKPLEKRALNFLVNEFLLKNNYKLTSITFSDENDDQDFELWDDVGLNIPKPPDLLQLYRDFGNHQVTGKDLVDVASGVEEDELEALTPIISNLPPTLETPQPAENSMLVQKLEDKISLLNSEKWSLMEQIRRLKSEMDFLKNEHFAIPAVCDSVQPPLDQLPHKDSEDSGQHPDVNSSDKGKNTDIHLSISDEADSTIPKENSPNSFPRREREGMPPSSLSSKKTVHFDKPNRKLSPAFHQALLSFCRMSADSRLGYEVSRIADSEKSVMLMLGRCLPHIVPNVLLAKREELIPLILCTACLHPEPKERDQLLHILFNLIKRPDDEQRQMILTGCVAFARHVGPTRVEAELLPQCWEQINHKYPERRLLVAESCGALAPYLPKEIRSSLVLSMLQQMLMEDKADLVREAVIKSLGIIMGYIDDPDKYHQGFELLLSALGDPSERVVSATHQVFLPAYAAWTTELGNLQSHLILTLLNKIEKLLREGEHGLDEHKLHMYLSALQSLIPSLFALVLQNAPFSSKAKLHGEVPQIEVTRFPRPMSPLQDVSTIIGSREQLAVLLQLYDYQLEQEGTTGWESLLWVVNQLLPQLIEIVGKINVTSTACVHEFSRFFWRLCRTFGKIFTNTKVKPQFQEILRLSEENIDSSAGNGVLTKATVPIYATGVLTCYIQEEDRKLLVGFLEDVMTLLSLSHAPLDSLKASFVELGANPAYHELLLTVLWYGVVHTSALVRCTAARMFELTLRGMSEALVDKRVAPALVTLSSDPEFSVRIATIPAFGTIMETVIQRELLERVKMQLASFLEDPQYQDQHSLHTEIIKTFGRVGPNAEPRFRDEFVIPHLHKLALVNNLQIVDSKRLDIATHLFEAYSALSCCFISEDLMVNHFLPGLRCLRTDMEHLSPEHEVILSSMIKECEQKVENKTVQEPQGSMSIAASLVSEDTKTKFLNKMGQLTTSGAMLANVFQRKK
UniProt Q8WWW0: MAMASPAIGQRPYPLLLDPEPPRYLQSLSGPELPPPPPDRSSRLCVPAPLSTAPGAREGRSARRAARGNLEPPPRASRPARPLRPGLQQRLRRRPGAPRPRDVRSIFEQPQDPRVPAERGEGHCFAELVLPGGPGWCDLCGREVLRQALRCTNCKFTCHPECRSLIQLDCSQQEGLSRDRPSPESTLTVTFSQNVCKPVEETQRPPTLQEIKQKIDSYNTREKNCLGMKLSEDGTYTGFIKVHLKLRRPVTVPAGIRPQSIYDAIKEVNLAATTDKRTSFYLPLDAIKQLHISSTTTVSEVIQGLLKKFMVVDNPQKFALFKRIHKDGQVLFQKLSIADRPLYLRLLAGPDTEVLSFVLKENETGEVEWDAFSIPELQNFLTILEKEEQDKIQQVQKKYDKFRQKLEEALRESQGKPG
UniProt Q9BWE0: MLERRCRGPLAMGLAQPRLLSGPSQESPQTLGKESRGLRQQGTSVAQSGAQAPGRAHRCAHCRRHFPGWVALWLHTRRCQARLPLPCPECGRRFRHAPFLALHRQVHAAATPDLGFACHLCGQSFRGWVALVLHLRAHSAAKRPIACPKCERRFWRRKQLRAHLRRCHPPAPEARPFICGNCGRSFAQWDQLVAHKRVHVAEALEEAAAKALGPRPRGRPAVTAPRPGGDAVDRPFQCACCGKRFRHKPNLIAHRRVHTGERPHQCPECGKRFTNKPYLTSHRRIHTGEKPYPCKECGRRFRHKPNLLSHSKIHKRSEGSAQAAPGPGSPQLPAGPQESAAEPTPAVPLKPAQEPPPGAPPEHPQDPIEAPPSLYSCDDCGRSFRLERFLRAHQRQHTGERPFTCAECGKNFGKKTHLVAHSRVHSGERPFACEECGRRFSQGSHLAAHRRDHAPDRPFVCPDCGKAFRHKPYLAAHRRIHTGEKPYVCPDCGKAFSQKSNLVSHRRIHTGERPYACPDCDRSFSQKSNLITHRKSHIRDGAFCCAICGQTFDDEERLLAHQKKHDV
UniProt Q96I25: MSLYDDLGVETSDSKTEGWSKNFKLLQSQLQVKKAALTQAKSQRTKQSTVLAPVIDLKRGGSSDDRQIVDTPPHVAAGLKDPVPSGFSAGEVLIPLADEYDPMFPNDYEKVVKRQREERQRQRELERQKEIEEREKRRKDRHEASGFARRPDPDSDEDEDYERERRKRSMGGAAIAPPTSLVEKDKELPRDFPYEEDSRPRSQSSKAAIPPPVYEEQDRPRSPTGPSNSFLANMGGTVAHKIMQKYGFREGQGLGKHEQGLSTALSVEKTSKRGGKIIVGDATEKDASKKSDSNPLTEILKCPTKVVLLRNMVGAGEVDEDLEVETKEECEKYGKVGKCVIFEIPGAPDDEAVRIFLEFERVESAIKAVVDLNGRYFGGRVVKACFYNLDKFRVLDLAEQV

Experiments:
Experiment in all cases: log2 fold change, soluble protein after heating vs DMSO (PISA); higher = thermal stabilisation; K562 lysate, 10 uM; active = over 0.2 and 3.5 SD of the protein, either way, in both replicates (recomputed)
erlotinib = compound: C#Cc1cccc(Nc2ncnc3cc(OCCOC)c(OCCOC)cc23)c1 [erlotinib]
Procedure, shortened: (§1)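 Quantification was by TMTpro 16plex LC-MS/MS with equalised channel sums, applied to the supernatant after 21,000xg for 90 min. Samples were crude K562 extract at 1 mg/mL protein in PBS pH 7.4 with 1 mM MgCl2, treated with 10 μM compound for 30 min, heated for 3 min across 48°C-58°C, pooled and brought to 0.5% NP-40 at 4°C. Values are log-two fold changes in thermal stability relative to solvent controls, from duplicates.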

[1] = compound: C/C(=N\NC(=O)C1=CC(=CC=C1)S(=O)(=O)N2CCOCC2)/C3=C(C=CC(=C3)Cl)O
Procedure, shortened: as §1

[2] = compound: C1=CC(=CC=C1C2=NC3=C(N2)C=C(C=C3)C(=O)N)OC4=CC=C(C=C4)Cl
Procedure, shortened: as §1

[3] = compound: C1=CC2=C(C=CC(=C2)/C=C\3/C(=O)NC(=NCC4=CC=CS4)S3)N=C1
Procedure, shortened: as §1

[4] = compound: C1=CC2=NC=CN=C2C=C1/C=C/3\C(=O)NC(=O)S3
Procedure, shortened: as §1

[5] = compound: C1=CC=C(C=C1)C2=NC(=C(N2)C3=CC=NC=C3)C4=CC(=C(C=C4)Cl)O
Procedure, shortened: as §1

[6] = compound: C1=CC=C2C(=C1)C3=NNC4=CC=CC(=C43)C2=O
Procedure, shortened: as §1

[7] = compound: C1CCN(C1)C(=O)NC2=CC=CC(=C2)NC3=NC=C(C(=N3)NCCC4=CN=CN4)Br
Procedure, shortened: as §1

[8] = compound: C1CN(CCC1(CC2=CC=C(C=C2)Cl)N)C3=NC=NC4=C3C=CN4
Procedure, shortened: as §1

IRAK-1-4 Inhibitor I = compound: C1COCCN1CCN2C3=CC=CC=C3N=C2NC(=O)C4=CC(=CC=C4)[N+](=O)[O-] [IRAK-1-4 Inhibitor I]
Procedure, shortened: as §1

ibrutinib = compound: C=CC(=O)N1CCC[C@@H](n2nc(-c3ccc(Oc4ccccc4)cc3)c3c(N)ncnc32)C1 [ibrutinib]
Procedure, shortened: as §1

[9] = compound: CC(=O)c1cnc2ccc(-c3cc(Cl)c(O)c(Cl)c3)nc2c1N[C@H]1CC[C@H](CN(C)C)CC1
Procedure, shortened: as §1

ralimetinib = compound: CC(C)(C)Cn1c(N)nc2ccc(-c3[nH]c(C(C)(C)C)nc3-c3ccc(F)cc3)nc21 [ralimetinib]
Procedure, shortened: as §1

[10] = compound: CC(C)(O)CC(=O)NCCn1ccc2ncnc(Nc3ccc(Oc4cccc(C(F)(F)F)c4)c(Cl)c3)c21
Procedure, shortened: as §1

[11] = compound: CC(C)C1=C2N=C(C=C(N2N=C1)NCC3=CC=CC=C3)NCCCCCCN
Procedure, shortened: as §1

[12] = compound: CC1=C(C(CC(=O)N1)C2=CC=C(C=C2)C(F)(F)F)C(=O)NC3=C(C=C4C(=C3)C=NN4)F
Procedure, shortened: as §1

[13] = compound: CC1=C(C2=C(C=C1)C(=O)C3=CC=CC=C3N2CCCN)C
Procedure, shortened: as §1

[14] = compound: CC1=C(C=C(C=C1)NC(=O)C2=CC(=CC=C2)C(C)(C)C#N)NC3=CC4=C(C=C3)N=CN(C4=O)C
Procedure, shortened: as §1

[15] = compound: CC1=C(C=C(C=C1)NC(=O)C2=CC(=CC=C2)N(C)C)NC(=O)C3=CC=C(C=C3)O
Procedure, shortened: as §1

[16] = compound: CC1=CC=C(C=C1)SC2=C3C=C(SC3=CN=C2)C(=O)N
Procedure, shortened: as §1

Measured: log2 fold change

RC3H1 (UniProt Q5TC82)
inactive: erlotinib 0.031 | [1] -0.042 | [2] 0.089 | [3] -0.129 | [4] 0.103 | [5] 0.003 | [6] -0.086 | [7] 0.077 | [8] -0.022 | IRAK-1-4 Inhibitor I 0.009 | ibrutinib 0.057 | [9] -0.107 | ralimetinib 0.067 | [10] -0.042 | [11] -0.028 | [12] -0.071 | [13] 0.074 | [14] -0.037 | [15] 0.026 | [16] 0.06

RCN1 (UniProt Q15293)
inactive: erlotinib -0.026 | [1] -0.02 | [2] 0.057 | [3] 0.011 | [4] 0.019 | [5] 0.016 | [6] -0.032 | [7] 0.01 | [8] -0.018 | IRAK-1-4 Inhibitor I 0.009 | ibrutinib -0.031 | [9] -0.002 | ralimetinib -0.004 | [10] 0.034 | [11] -0.019 | [12] -0.007 | [13] -0.016 | [14] -0.029 | [15] 0.005 | [16] 0.008

RCE1 (UniProt Q9Y256)
inactive: erlotinib 0.242 | [1] -0.503 | [2] -0.051 | [3] 0.069 | [4] -0.022 | [5] -0.037 | [6] -0.308 | [7] 0.046 | [8] -0.049 | IRAK-1-4 Inhibitor I 0.034 | ibrutinib -0.05 | [9] 0.189 | ralimetinib 0.084 | [10] -0.21 | [11] -0.056 | [12] 0.269 | [13] -0.341 | [14] 0.05 | [15] -0.027 | [16] -0.011

RARS (UniProt P54136)
inactive: erlotinib 0.037 | [1] 0.029 | [2] -0.023 | [3] 0.023 | [4] 0.043 | [5] 0.029 | [6] -0.025 | [7] -0.005 | [8] 0.005 | IRAK-1-4 Inhibitor I 0.008 | ibrutinib -0.001 | [9] -0.003 | ralimetinib 0.062 | [10] 0.048 | [11] 0.033 | [12] -0.019 | [13] 0.015 | [14] -0.003 | [15] 0.06 | [16] 0.033

RAPGEF6 isoform 4 (UniProt Q8TEU7)
inactive: erlotinib 0.022 | [1] -0.033 | [2] 0.022 | [3] 0.034 | [4] -0.005 | [5] -0.007 | [6] -0.052 | [7] -0.026 | [8] -0.015 | IRAK-1-4 Inhibitor I 0.014 | ibrutinib -0.01 | [9] -0.003 | ralimetinib 0.021 | [10] -0.028 | [11] 0.002 | [12] 0.013 | [13] -0.02 | [14] -0.004 | [15] 0.038 | [16] -0.031

RBM26 isoform 2 (UniProt Q5T8P6)
inactive: erlotinib 0.016 | [1] 0.048 | [2] -0.033 | [3] 0.005 | [4] -0.02 | [5] 0.027 | [6] -0.013 | [7] -0.002 | [8] -0.005 | IRAK-1-4 Inhibitor I -0.008 | ibrutinib 0.007 | [9] -0.009 | ralimetinib -0.01 | [10] -0.013 | [11] 0.016 | [12] -0.017 | [13] 0.016 | [14] -0.006 | [15] 0.03 | [16] -0.005

RCHY1 (UniProt Q96PM5)
inactive: erlotinib 0.048 | [1] -0.01 | [2] -0.014 | [3] 0.05 | [4] -0.005 | [5] 0.006 | [6] 0.03 | [7] -0.054 | [8] 0.006 | IRAK-1-4 Inhibitor I -0.051 | ibrutinib 0.027 | [9] -0.013 | ralimetinib 0.002 | [10] 0.019 | [11] 0.009 | [12] -0.055 | [13] 0.022 | [14] 0.212 | [15] -0.012 | [16] -0.011

Quoted from above (2 entries):
RBM26 isoform 2 (UniProt Q5T8P6)
inactive: erlotinib 0.016 | [1] 0.048 | [2] -0.033 | [3] 0.005 | [4] -0.02 | [5] 0.027 | [6] -0.013 | [7] -0.002 | [8] -0.005 | IRAK-1-4 Inhibitor I -0.008 | ibrutinib 0.007 | [9] -0.009 | ralimetinib -0.01 | [10] -0.013 | [11] 0.016 | [12] -0.017 | [13] 0.016 | [14] -0.006 | [15] 0.03 | [16] -0.005

RCHY1 (UniProt Q96PM5)
inactive: erlotinib 0.048 | [1] -0.01 | [2] -0.014 | [3] 0.05 | [4] -0.005 | [5] 0.006 | [6] 0.03 | [7] -0.054 | [8] 0.006 | IRAK-1-4 Inhibitor I -0.051 | ibrutinib 0.027 | [9] -0.013 | ralimetinib 0.002 | [10] 0.019 | [11] 0.009 | [12] -0.055 | [13] 0.022 | [14] 0.212 | [15] -0.012 | [16] -0.011

Later entries:

RFC3 (UniProt P40938)
inactive: erlotinib 0.05 | [1] 0.01 | [2] -0.034 | [3] 0.024 | [4] 0.005 | [5] 0.005 | [6] -0.027 | [7] -0.002 | [8] 0.049 | IRAK-1-4 Inhibitor I 0.028 | ibrutinib 0.024 | [9] 0.131 | ralimetinib 0.03 | [10] -0.012 | [11] -0.04 | [12] 0.004 | [13] -0.034 | [14] 0.002 | [15] 0.042 | [16] -0.008

RCL1 (UniProt Q9Y2P8)
inactive: erlotinib 0 | [1] -0.034 | [2] -0.075 | [3] 0.07 | [4] 0.054 | [5] 0.021 | [6] -0.033 | [7] 0 | [8] -0.007 | IRAK-1-4 Inhibitor I 0.008 | ibrutinib 0.071 | [9] 0 | ralimetinib 0.052 | [10] -0.003 | [11] -0.048 | [12] 0.069 | [13] 0.036 | [14] 0.115 | [15] 0.012 | [16] 0.003

RELCH isoform 2 (UniProt Q9P260)
inactive: erlotinib 0.027 | [1] -0.06 | [2] 0.031 | [3] -0.128 | [4] -0.015 | [5] -0.053 | [6] 0.021 | [7] -0.009 | [8] 0.034 | IRAK-1-4 Inhibitor I -0.046 | ibrutinib -0.001 | [9] 0.011 | ralimetinib 0.016 | [10] -0.054 | [11] -0.039 | [12] 0.041 | [13] -0.057 | [14] 0.004 | [15] 0.011 | [16] 0.054

RASSF5 (UniProt Q8WWW0)
inactive: erlotinib -0.015 | [1] -0.143 | [2] -0.11 | [3] 0.017 | [4] -0.011 | [5] 0.025 | [6] 0.101 | [7] 0.051 | [8] 0.041 | IRAK-1-4 Inhibitor I 0.019 | ibrutinib 0.011 | [9] 0.117 | ralimetinib -0.032 | [10] -0.045 | [11] -0.012 | [12] -0.03 | [13] -0.021 | [14] 0.002 | [15] -0.072 | [16] -0.019

RER1 (UniProt O15258)
inactive: erlotinib 0.006 | [1] 0.048 | [2] -0.041 | [3] 0.029 | [4] 0.017 | [5] -0.014 | [6] -0.052 | [7] 0 | [8] -0.043 | IRAK-1-4 Inhibitor I 0.044 | ibrutinib -0.014 | [9] 0.022 | ralimetinib 0.032 | [10] -0.005 | [11] -0.015 | [12] 0.013 | [13] -0.012 | [14] -0.007 | [15] -0.008 | [16] 0.023

RBM27 (UniProt Q9P2N5)
inactive: erlotinib 0.009 | [1] -0.014 | [2] -0.009 | [3] -0.001 | [4] -0.003 | [5] 0.002 | [6] -0.009 | [7] -0.001 | [8] 0.018 | IRAK-1-4 Inhibitor I -0.008 | ibrutinib 0.054 | [9] 0.001 | ralimetinib 0.019 | [10] -0.012 | [11] 0.029 | [12] 0.006 | [13] 0.015 | [14] -0.037 | [15] 0.021 | [16] 0.02

REL isoform 2 (UniProt Q04864)
inactive: erlotinib 0.022 | [1] -0.005 | [2] -0.048 | [3] 0.016 | [4] -0.017 | [5] 0.037 | [6] -0.019 | [7] -0.011 | [8] -0.02 | IRAK-1-4 Inhibitor I 0.019 | ibrutinib 0.032 | [9] 0.015 | ralimetinib 0.06 | [10] -0.003 | [11] 0.005 | [12] -0.018 | [13] 0.038 | [14] 0.022 | [15] -0.023 | [16] 0.049

REPIN1 isoform 4 (UniProt Q9BWE0)
inactive: erlotinib 0.059 | [1] -0.098 | [2] 0.114 | [3] -0.013 | [4] -0.041 | [5] -0.026 | [6] 0.007 | [7] -0.023 | [8] 0.072 | IRAK-1-4 Inhibitor I 0.007 | ibrutinib 0.018 | [9] -0.033 | ralimetinib 0.042 | [10] -0.058 | [11] 0.053 | [12] -0.011 | [13] -0.048 | [14] -0.02 | [15] 0.027 | [16] 0.041

RBM17 (UniProt Q96I25)
inactive: erlotinib -0.009 | [1] 0.024 | [2] 0.006 | [3] -0.011 | [4] -0.05 | [5] 0.039 | [6] -0.009 | [7] -0.006 | [8] 0.023 | IRAK-1-4 Inhibitor I -0.018 | ibrutinib 0.02 | [9] 0.002 | ralimetinib -0.004 | [10] 0.007 | [11] 0.007 | [12] 0.036 | [13] 0 | [14] 0.002 | [15] 0.003 | [16] -0.001
